Measurements reported in article PMC5214336.
Results are given in words; binding and its absence hold for the method and conditions named. Binding seen in cells or lysates may run through a third protein. Some binding calls cover weakened binding; strength is not graded here. Tags and fused reporters may be left off the sequences shown.

Legend:
[1] = molecular target: T1, His6-tagged Sgt2 (S. cerevisiae) (UniProt Q12118); test: pull-down; TA translated in E. coli S30 lysate with 35S-methionine and 2 µM His6-Sgt2 (30°C, 1 hr) together with an internal control; captured on Ni-NTA agarose at 4°C in capture buffer (50 mM KHEPES pH 7.5, 150 mM KOAc, 5 mM Mg(OAc)2, 10% glycerol, 5 mM β-ME, 20 mM imidazole); SDS-PAGE and autoradiography; efficiencies normalised to the control; only the target purified
T1 sequence: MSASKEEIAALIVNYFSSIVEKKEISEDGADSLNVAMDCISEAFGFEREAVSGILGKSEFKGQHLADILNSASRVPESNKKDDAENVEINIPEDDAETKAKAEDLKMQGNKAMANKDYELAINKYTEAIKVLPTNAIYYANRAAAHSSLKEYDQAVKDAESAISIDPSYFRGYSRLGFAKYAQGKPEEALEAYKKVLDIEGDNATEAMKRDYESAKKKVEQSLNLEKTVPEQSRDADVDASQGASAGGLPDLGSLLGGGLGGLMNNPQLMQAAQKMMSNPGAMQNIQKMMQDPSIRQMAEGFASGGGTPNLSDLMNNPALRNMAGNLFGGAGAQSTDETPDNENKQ

[2] = molecular target: T2, His6-tagged Get3 (S. cerevisiae) (UniProt Q12154); test: pull-down; TA translated in E. coli S30 lysate with 35S-methionine and 2 µM untagged Sgt2; then 2 mM ATP, 2 µM Get4/5 and 2 µM His6-Get3 for 1 hr; Get3•TA purified on Ni-NTA; only the target purified
T2 sequence: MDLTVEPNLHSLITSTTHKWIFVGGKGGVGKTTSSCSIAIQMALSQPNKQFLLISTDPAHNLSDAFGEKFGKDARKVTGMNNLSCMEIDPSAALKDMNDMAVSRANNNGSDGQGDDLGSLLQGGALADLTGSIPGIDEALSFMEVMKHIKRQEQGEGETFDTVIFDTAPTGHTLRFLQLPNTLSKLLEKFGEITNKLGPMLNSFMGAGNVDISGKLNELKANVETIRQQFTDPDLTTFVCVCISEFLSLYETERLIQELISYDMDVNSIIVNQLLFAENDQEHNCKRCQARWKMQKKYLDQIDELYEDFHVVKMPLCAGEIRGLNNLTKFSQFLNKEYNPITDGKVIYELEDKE

[3] = molecular target: T3, Bos1 model TA substrate (3xStrep-SUMO-Bos1p(207-244)-opsin) (S. cerevisiae) (UniProt P25385); test: pull-down; TA translated in E. coli S30 lysate with His6-Sgt2, His6-Get4/5 and His6-Get3 added at the start (2 hr); captured by the 3xStrep tag of the TA on Strep-Tactin Sepharose, washed with GET buffer with 500 mM NaCl and GET buffer, eluted with biotin; SDS-PAGE and western blot against His6; only the binder purified
T3 sequence: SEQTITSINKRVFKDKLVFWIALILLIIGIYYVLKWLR

For SEQTITSINKRVFKDKLVFWIALILLIIGIYYVLKWLR (domain or fragment, UniProt P25385 223-244) [Bos1 model TA substrate (3xStrep-SUMO-Bos1p(207-244)-opsin)], the binding [1] was “binds” and the binding [2] was “binds”.

With SEQTITSINKRVFKDKLVFWIALILLIIGIYYVLKWLR (domain or fragment, UniProt P25385 223-244) [Bos1 construct lacking the N-terminal 3xStrep tag] the binding [1] was “binds”.

B1: His6-tagged Get3 (enzyme, UniProt Q12154 1-354)
chain: T2 sequence
For B1, the binding [3] was “binds”.

B2: His6-tagged Get4/5 (complex, UniProt Q12125 1-312; Q12285 1-212)
chain 1: MVPAESNAVQAKLAKTLQRFENKIKAGDYYEAHQTLRTIANRYVRSKSYEHAIELISQGALSFLKAKQGGSGTDLIFYLLEVYDLAEVKVDDISVARLVRLIAELDPSEPNLKDVITGMNNWSIKFSEYKFGDPYLHNTIGSKLLEGDFVYEAERYFMLGTHDSMIKYVDLLWDWLCQVDDIEDSTVAEFFSRLVFNYLFISNISFAHESKDIFLERFIEKFHPKYEKIDKNGYEIVFFEDYSDLNFLQLLLITCQTKDKSYFLNLKNHYLDFSQAYKSELEFLGQEYFNIVAPKQTNFLQDMMSGFLGGSK
chain 2: MSTSASGPEHEFVSKFLTLATLTEPKLPKSYTKPLKDVTNLGVPLPTLKYKYKQNRAKKLKLHQDQQGQDNAAVHLTLKKIQAPKFSIEHDFSPSDTILQIKQHLISEEKASHISEIKLLLKGKVLHDNLFLSDLKVTPANSTITVMIKPNPTISKEPEAEKSTNSPAPAPPQELTVPWDDIEALLKNNFENDQAAVRQVMERLQKGWSLAK
B2 was tested, and the binding [3] was “no binding”.
